Experimental data reported in the supplement of paper PMC12823440, “Inhibitors supercharge kinase turnover through native proteolytic circuits” (Nature, 2025).
Where a name gives a salt, the structure may show the parent alone. This is one part of the list. Hit calls seldom repeat between salt and free forms of one compound.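 In K562 cells expressing nanoluciferase-fused kinases, luminescence was recorded at 4 h intervals between 2 and 18 h, normalized as percent of control with DMSO at 100% and a positive control at 0%. A significant (2 sigma) signal drop marks a time point as decreased. The authors' rule for a hit is not shown and takes in more than the number of time points.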

The chains behind the UniProt entries cited, without tags or fusion partners. Where a name states a change or a piece, a line headed by the entry shows the natural chain unless it says otherwise.
UniProt O15530: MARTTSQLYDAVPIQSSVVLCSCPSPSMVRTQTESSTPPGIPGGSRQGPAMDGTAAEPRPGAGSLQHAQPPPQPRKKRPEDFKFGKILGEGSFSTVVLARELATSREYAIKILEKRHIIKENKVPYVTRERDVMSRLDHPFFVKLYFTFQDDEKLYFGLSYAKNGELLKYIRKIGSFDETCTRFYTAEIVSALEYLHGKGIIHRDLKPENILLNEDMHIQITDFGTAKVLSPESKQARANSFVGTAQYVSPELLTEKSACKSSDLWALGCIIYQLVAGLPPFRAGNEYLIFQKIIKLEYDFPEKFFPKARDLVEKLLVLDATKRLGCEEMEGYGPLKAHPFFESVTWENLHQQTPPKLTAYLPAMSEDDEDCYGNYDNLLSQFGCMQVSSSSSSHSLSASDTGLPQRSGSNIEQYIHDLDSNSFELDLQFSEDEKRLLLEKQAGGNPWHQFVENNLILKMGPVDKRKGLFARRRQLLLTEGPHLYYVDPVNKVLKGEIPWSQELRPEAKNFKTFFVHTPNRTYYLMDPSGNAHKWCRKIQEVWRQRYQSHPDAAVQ
UniProt P53350, whole entry: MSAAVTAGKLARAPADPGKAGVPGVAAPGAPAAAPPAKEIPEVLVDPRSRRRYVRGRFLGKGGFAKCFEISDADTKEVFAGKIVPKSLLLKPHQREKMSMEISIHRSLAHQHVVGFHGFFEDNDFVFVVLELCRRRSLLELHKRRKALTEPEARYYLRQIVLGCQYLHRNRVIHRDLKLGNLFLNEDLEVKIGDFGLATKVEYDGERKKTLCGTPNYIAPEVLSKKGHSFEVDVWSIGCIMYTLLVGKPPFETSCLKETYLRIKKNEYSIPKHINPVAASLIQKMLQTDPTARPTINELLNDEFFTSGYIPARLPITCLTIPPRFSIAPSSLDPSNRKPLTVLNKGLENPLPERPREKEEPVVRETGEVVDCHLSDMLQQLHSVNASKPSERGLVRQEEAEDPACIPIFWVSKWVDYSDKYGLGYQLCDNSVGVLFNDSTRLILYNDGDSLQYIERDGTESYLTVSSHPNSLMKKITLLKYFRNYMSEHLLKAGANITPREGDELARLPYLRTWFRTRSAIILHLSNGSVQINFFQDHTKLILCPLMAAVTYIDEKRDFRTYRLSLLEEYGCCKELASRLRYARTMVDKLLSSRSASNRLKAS
UniProt Q13131: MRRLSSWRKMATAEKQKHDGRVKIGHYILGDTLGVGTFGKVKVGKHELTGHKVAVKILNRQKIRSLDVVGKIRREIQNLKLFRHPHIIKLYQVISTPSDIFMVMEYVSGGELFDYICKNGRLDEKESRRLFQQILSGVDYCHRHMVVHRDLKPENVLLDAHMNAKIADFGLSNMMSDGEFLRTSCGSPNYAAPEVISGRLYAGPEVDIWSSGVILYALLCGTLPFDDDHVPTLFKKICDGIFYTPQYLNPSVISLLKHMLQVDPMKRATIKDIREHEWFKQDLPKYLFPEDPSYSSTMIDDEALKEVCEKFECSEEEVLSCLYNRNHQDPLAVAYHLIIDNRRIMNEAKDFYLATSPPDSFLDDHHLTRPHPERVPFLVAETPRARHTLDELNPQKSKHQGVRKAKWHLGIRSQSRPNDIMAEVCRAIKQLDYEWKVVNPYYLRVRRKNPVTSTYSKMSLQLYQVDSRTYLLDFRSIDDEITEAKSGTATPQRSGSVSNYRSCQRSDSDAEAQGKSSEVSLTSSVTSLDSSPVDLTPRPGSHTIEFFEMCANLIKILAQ
UniProt Q14289, whole entry, looked up: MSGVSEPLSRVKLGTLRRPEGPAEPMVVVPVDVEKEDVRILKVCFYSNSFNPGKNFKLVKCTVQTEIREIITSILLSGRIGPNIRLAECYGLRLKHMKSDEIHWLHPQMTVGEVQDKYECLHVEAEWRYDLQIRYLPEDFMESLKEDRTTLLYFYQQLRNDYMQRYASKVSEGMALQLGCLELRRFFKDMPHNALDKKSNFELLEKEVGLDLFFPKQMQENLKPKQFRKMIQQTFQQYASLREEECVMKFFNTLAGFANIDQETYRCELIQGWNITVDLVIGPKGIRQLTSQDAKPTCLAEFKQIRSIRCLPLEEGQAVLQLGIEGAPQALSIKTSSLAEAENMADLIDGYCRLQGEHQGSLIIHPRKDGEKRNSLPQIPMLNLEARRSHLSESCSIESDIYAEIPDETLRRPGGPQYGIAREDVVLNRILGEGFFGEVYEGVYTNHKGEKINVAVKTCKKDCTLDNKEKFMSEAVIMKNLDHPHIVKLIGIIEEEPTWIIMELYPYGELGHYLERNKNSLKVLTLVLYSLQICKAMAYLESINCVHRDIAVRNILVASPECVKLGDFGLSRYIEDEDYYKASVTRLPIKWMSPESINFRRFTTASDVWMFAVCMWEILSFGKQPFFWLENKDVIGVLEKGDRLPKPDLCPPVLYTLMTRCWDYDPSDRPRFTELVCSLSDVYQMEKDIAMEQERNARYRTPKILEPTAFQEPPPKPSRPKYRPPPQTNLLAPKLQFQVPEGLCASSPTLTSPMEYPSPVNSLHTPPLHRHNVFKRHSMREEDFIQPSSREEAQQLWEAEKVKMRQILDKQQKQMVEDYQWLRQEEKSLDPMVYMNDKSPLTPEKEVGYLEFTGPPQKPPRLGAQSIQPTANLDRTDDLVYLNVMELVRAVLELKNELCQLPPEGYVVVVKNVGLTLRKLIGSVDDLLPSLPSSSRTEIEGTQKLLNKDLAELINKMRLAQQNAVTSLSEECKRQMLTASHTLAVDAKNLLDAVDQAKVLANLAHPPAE
UniProt P07949, whole entry, looked up: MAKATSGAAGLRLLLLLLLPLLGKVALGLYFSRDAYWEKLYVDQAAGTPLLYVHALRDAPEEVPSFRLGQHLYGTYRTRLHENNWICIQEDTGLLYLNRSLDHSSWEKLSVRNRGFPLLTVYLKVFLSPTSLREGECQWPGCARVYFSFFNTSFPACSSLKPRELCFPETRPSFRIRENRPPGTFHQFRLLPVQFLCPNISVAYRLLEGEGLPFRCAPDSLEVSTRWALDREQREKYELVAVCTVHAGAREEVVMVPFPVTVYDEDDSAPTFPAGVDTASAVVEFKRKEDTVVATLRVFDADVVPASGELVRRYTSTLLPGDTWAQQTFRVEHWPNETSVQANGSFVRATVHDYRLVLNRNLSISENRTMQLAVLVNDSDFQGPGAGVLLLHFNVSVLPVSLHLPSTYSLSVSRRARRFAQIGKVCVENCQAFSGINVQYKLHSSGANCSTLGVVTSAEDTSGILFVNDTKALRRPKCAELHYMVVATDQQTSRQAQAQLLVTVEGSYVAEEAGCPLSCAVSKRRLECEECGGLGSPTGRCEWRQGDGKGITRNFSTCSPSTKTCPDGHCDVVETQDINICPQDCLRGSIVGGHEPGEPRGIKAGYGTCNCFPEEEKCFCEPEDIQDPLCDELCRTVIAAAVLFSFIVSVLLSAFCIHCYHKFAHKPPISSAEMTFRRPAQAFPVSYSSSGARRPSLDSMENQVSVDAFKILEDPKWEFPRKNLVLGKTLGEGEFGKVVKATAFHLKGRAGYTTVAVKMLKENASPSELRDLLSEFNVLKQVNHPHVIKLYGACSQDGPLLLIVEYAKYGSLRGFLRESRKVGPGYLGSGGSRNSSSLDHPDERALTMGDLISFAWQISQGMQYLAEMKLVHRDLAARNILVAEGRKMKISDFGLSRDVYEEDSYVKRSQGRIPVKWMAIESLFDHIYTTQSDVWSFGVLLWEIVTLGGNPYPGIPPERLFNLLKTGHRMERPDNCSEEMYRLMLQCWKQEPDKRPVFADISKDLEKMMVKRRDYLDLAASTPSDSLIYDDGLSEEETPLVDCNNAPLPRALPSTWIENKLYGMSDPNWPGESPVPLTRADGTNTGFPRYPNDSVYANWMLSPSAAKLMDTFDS
UniProt P07949, whole entry M918T, looked up: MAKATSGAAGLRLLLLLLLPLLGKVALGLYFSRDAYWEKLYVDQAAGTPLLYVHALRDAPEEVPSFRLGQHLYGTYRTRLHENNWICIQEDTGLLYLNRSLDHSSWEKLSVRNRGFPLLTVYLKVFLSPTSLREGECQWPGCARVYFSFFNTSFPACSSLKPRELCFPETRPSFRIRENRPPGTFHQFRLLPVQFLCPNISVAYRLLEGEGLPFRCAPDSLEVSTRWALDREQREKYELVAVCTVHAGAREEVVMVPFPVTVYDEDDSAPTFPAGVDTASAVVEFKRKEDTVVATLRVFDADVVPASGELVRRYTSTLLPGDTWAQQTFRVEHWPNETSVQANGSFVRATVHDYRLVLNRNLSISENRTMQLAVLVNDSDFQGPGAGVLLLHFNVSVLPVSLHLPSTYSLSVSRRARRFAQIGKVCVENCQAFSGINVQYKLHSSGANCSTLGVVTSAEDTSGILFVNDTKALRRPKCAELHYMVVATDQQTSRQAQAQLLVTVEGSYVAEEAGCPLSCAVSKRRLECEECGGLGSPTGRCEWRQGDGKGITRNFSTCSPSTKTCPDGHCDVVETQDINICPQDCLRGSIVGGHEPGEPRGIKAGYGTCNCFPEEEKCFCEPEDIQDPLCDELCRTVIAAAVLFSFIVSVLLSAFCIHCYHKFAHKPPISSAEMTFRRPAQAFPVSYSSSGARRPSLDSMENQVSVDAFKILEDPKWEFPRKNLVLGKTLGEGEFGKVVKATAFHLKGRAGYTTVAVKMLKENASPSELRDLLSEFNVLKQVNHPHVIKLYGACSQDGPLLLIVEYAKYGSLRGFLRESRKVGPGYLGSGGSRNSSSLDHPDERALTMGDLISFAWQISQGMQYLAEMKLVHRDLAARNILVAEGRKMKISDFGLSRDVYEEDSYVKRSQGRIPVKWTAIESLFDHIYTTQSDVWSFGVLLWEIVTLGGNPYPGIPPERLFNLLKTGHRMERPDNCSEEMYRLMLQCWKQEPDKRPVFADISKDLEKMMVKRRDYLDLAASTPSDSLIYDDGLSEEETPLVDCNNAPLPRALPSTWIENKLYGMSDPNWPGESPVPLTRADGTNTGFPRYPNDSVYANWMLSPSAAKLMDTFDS
UniProt Q01974, whole entry: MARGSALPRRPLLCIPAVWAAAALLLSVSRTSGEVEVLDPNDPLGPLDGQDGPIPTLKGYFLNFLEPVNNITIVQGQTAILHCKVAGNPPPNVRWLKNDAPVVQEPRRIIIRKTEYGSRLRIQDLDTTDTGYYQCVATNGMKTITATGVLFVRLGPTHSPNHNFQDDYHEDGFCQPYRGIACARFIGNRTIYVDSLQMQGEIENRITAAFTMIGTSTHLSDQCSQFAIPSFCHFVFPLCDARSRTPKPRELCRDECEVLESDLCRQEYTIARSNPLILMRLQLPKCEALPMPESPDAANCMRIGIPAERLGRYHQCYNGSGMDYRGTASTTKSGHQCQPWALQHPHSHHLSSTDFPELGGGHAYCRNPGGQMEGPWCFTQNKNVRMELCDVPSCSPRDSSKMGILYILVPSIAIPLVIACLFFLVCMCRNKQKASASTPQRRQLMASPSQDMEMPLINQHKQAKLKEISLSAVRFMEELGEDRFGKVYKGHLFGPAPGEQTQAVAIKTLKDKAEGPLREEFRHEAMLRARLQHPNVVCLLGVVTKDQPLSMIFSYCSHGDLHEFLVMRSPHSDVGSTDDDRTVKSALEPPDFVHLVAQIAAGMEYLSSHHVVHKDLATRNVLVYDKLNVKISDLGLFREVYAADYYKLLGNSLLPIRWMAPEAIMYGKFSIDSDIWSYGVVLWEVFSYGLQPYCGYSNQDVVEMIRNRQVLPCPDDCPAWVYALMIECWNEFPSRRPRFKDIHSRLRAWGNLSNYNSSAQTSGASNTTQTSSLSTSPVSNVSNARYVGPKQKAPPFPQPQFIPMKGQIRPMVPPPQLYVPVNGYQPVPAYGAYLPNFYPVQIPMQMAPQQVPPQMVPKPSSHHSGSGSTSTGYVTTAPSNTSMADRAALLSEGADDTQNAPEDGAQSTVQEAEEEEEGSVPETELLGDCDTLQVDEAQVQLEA
UniProt Q9Y6E0: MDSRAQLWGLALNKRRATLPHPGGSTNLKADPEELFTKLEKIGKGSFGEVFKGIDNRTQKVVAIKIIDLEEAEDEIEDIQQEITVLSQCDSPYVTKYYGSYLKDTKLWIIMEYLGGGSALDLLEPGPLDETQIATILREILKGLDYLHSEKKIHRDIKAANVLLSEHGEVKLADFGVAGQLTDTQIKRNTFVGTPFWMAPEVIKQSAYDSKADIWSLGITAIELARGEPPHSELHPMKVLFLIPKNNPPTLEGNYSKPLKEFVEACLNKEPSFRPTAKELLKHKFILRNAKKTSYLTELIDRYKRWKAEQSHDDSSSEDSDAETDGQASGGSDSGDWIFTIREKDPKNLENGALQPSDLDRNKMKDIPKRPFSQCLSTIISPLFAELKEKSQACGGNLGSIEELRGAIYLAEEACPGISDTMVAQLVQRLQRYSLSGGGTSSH

What was measured:
Test in all cases: kinase-Nluc reporter destabilization hit call (1 = scored as downregulated) (binary); higher = compound decreases kinase abundance
Details in all cases: K562; 2-18 h
PDPK1 = PDPK1 (UniProt O15530)
PIK4CA = PIK4CA (UniProt P42356)
PIK4CB = PIK4CB (UniProt Q9UBF8)
PLK1 = PLK1 (UniProt P53350)
PRKAA1 = PRKAA1 (UniProt Q13131)
PRKCA = PRKCA (UniProt P17252)
PTK2 = PTK2 (UniProt Q05397)
PTK2B = PTK2B (UniProt Q14289)
RAF1 = RAF1 (UniProt P04049)
[1] = biological target: RAF1_S257L (clone: RAF1_mut) (UniProt P04049)
RET = RET (UniProt P07949)
[2] = biological target: RET_M918T (clone: RET_mut) (UniProt P07949)
RIOK1 = RIOK1 (UniProt Q9BRS2)
RIPK1 = RIPK1 (UniProt Q13546)
RIPK2 = RIPK2 (UniProt O43353)
ROR2 = ROR2 (UniProt Q01974)
RPS6KA1 = RPS6KA1 (UniProt Q15418)
SPHK1 = SPHK1 (UniProt Q9NYA1)
SRC = SRC (UniProt P12931)
STK24 = STK24 (UniProt Q9Y6E0)

Measured: kinase-Nluc reporter destabilization hit call

C=CC(=O)Nc1cccc(-c2cccc3cnc(Nc4ccc(N5CCN(CCO)CC5)c(F)c4F)nc23)c1 [Olafertinib] (2.5 µM)
inactive: PDPK1 = 0 | PIK4CA 0 | PIK4CB 0 | PLK1 = 0 | PRKAA1 = 0 | PRKCA 0 | PTK2 = 0 | PTK2B 0 | RAF1 = 0 | [1] 0 | RET 0 | [2] 0 | RIOK1 = 0 | RIPK1 = 0 | RIPK2 = 0 | ROR2 = 0 | RPS6KA1 = 0 | SPHK1 = 0 | SRC 0 | STK24 = 0

Cc1nc(-c2cnn(C)c2)nc2c1[nH]c1ncc(-c3ccc(N4CCN(C)CC4)cc3)cc12 [GNE 220 (hydrochloride)] (10 µM)
inactive: PDPK1 = 0 | PIK4CA 0 | PIK4CB 0 | PLK1 = 0 | PRKAA1 = 0 | PRKCA 0 | PTK2 = 0 | PTK2B 0 | RAF1 = 0 | [1] 0 | RET 0 | [2] 0 | RIOK1 = 0 | RIPK1 = 0 | RIPK2 = 0 | ROR2 = 0 | RPS6KA1 = 0 | SPHK1 = 0 | SRC 0 | STK24 = 0

CC[C@@](C)(Nc1ccnc(-c2c[nH]c3ncccc23)n1)C(=O)NCC(F)(F)F [Decernotinib] (10 µM)
inactive: PDPK1 = 0 | PIK4CA 0 | PIK4CB 0 | PLK1 = 0 | PRKAA1 = 0 | PRKCA 0 | PTK2 = 0 | PTK2B 0 | RAF1 = 0 | [1] 0 | RET 0 | [2] 0 | RIOK1 = 0 | RIPK1 = 0 | RIPK2 = 0 | ROR2 = 0 | RPS6KA1 = 0 | SPHK1 = 0 | SRC 0 | STK24 = 0

O=C(Nc1nc2ccc(NC(=O)C34CC5CC(CC(C5)C3)C4)cc2s1)c1ccccc1 (10 µM)
inactive: PDPK1 = 0 | PIK4CA 0 | PIK4CB 0 | PLK1 = 0 | PRKAA1 = 0 | PRKCA 0 | PTK2 = 0 | PTK2B 0 | RAF1 = 0 | [1] 0 | RET 0 | [2] 0 | RIOK1 = 0 | RIPK1 = 0 | RIPK2 = 0 | ROR2 = 0 | RPS6KA1 = 0 | SPHK1 = 0 | SRC 0 | STK24 = 0

Cc1cccc(-c2[nH]c(C(C)(C)C)nc2-c2ccc3nccnc3c2)n1 (10 µM)
inactive: PDPK1 = 0 | PIK4CA 0 | PIK4CB 0 | PLK1 = 0 | PRKAA1 = 0 | PRKCA 0 | PTK2 = 0 | PTK2B 0 | RAF1 = 0 | [1] 0 | RET 0 | [2] 0 | RIOK1 = 0 | RIPK1 = 0 | RIPK2 = 0 | ROR2 = 0 | RPS6KA1 = 0 | SPHK1 = 0 | SRC 0 | STK24 = 0

O=[N+]([O-])c1ccc(Nc2nc(N3CCOCC3)nc(N3CCOCC3)n2)cc1 (10 µM)
inactive: PDPK1 = 0 | PIK4CA 0 | PIK4CB 0 | PLK1 = 0 | PRKAA1 = 0 | PRKCA 0 | PTK2 = 0 | PTK2B 0 | RAF1 = 0 | [1] 0 | RET 0 | [2] 0 | RIOK1 = 0 | RIPK1 = 0 | RIPK2 = 0 | ROR2 = 0 | RPS6KA1 = 0 | SPHK1 = 0 | SRC 0 | STK24 = 0

Cc1ccc(Oc2nc3cc(-c4ccc(-c5ccccc5)cc4)c(Cl)cc3[nH]2)cc1C(=O)O (10 µM)
inactive: PDPK1 = 0 | PIK4CA 0 | PIK4CB 0 | PLK1 = 0 | PRKAA1 = 0 | PRKCA 0 | PTK2 = 0 | PTK2B 0 | RAF1 = 0 | [1] 0 | RET 0 | [2] 0 | RIOK1 = 0 | RIPK1 = 0 | RIPK2 = 0 | ROR2 = 0 | RPS6KA1 = 0 | SPHK1 = 0 | SRC 0 | STK24 = 0

CN1C(=O)[C@@H](NC(=O)c2n[nH]c(Cc3ccccc3)n2)COc2ccccc21 (10 µM)
inactive: PDPK1 = 0 | PIK4CA 0 | PIK4CB 0 | PLK1 = 0 | PRKAA1 = 0 | PRKCA 0 | PTK2 = 0 | PTK2B 0 | RAF1 = 0 | [1] 0 | RET 0 | [2] 0 | RIOK1 = 0 | RIPK1 = 0 | RIPK2 = 0 | ROR2 = 0 | RPS6KA1 = 0 | SPHK1 = 0 | SRC 0 | STK24 = 0

Four neighbouring compounds from above, quoted:
Cc1nc(-c2cnn(C)c2)nc2c1[nH]c1ncc(-c3ccc(N4CCN(C)CC4)cc3)cc12 [GNE 220 (hydrochloride)] (10 µM)
inactive: PDPK1 = 0 | PIK4CA 0 | PIK4CB 0 | PLK1 = 0 | PRKAA1 = 0 | PRKCA 0 | PTK2 = 0 | PTK2B 0 | RAF1 = 0 | [1] 0 | RET 0 | [2] 0 | RIOK1 = 0 | RIPK1 = 0 | RIPK2 = 0 | ROR2 = 0 | RPS6KA1 = 0 | SPHK1 = 0 | SRC 0 | STK24 = 0

CC[C@@](C)(Nc1ccnc(-c2c[nH]c3ncccc23)n1)C(=O)NCC(F)(F)F [Decernotinib] (10 µM)
inactive: PDPK1 = 0 | PIK4CA 0 | PIK4CB 0 | PLK1 = 0 | PRKAA1 = 0 | PRKCA 0 | PTK2 = 0 | PTK2B 0 | RAF1 = 0 | [1] 0 | RET 0 | [2] 0 | RIOK1 = 0 | RIPK1 = 0 | RIPK2 = 0 | ROR2 = 0 | RPS6KA1 = 0 | SPHK1 = 0 | SRC 0 | STK24 = 0

O=C(Nc1nc2ccc(NC(=O)C34CC5CC(CC(C5)C3)C4)cc2s1)c1ccccc1 (10 µM)
inactive: PDPK1 = 0 | PIK4CA 0 | PIK4CB 0 | PLK1 = 0 | PRKAA1 = 0 | PRKCA 0 | PTK2 = 0 | PTK2B 0 | RAF1 = 0 | [1] 0 | RET 0 | [2] 0 | RIOK1 = 0 | RIPK1 = 0 | RIPK2 = 0 | ROR2 = 0 | RPS6KA1 = 0 | SPHK1 = 0 | SRC 0 | STK24 = 0

Cc1cccc(-c2[nH]c(C(C)(C)C)nc2-c2ccc3nccnc3c2)n1 (10 µM)
inactive: PDPK1 = 0 | PIK4CA 0 | PIK4CB 0 | PLK1 = 0 | PRKAA1 = 0 | PRKCA 0 | PTK2 = 0 | PTK2B 0 | RAF1 = 0 | [1] 0 | RET 0 | [2] 0 | RIOK1 = 0 | RIPK1 = 0 | RIPK2 = 0 | ROR2 = 0 | RPS6KA1 = 0 | SPHK1 = 0 | SRC 0 | STK24 = 0

Later entries

Cc1cnc(-c2ccc(-c3ccc(NC(=O)Nc4cccc(C(F)(F)F)c4)cc3F)c3c2C(=O)NC3)[nH]1 (10 µM)
inactive: PDPK1 = 0 | PIK4CA 0 | PIK4CB 0 | PLK1 = 0 | PRKAA1 = 0 | PRKCA 0 | PTK2B 0 | RAF1 = 0 | [1] 0 | RET 0 | [2] 0 | RIOK1 = 0 | RIPK1 = 0 | RIPK2 = 0 | ROR2 = 0 | RPS6KA1 = 0 | SPHK1 = 0 | SRC 0 | STK24 = 0
active: PTK2 = 1

COc1ccc(-c2coc3cc(O)ccc3c2=O)cc1 [Formononetin] (10 µM)
inactive: PDPK1 = 0 | PIK4CA 0 | PIK4CB 0 | PLK1 = 0 | PRKAA1 = 0 | PRKCA 0 | PTK2 = 0 | PTK2B 0 | RAF1 = 0 | [1] 0 | RET 0 | [2] 0 | RIOK1 = 0 | RIPK1 = 0 | RIPK2 = 0 | ROR2 = 0 | RPS6KA1 = 0 | SPHK1 = 0 | SRC 0 | STK24 = 0

CCn1c(=O)c(-c2cc[nH]n2)cc2c(C)nc(N)nc21 [Voxtalisib] (10 µM)
inactive: PDPK1 = 0 | PIK4CA 0 | PIK4CB 0 | PLK1 = 0 | PRKAA1 = 0 | PRKCA 0 | PTK2 = 0 | PTK2B 0 | RAF1 = 0 | [1] 0 | RET 0 | [2] 0 | RIOK1 = 0 | RIPK1 = 0 | RIPK2 = 0 | ROR2 = 0 | RPS6KA1 = 0 | SPHK1 = 0 | SRC 0 | STK24 = 0

CC(C)=CC(=O)O[C@H]1Cc2cc3ccc(=O)oc3cc2OC1(C)C [Decursin] (10 µM)
inactive: PDPK1 = 0 | PIK4CA 0 | PIK4CB 0 | PLK1 = 0 | PRKAA1 = 0 | PRKCA 0 | PTK2 = 0 | PTK2B 0 | RAF1 = 0 | [1] 0 | RET 0 | [2] 0 | RIOK1 = 0 | RIPK1 = 0 | RIPK2 = 0 | ROR2 = 0 | RPS6KA1 = 0 | SPHK1 = 0 | SRC 0 | STK24 = 0

O=Nc1c2[nH]c3ccccc3nc-2c2ccccc12 [IQ-1S (free acid)] (2.5 µM)
inactive: PDPK1 = 0 | PIK4CA 0 | PIK4CB 0 | PLK1 = 0 | PRKAA1 = 0 | PRKCA 0 | PTK2 = 0 | PTK2B 0 | RAF1 = 0 | [1] 0 | RET 0 | [2] 0 | RIOK1 = 0 | RIPK1 = 0 | RIPK2 = 0 | ROR2 = 0 | RPS6KA1 = 0 | SPHK1 = 0 | SRC 0 | STK24 = 0

Nc1ncnc2c1c(COc1cccc(Cl)c1)nn2C1CCOCC1 (10 µM)
inactive: PDPK1 = 0 | PIK4CA 0 | PIK4CB 0 | PLK1 = 0 | PRKAA1 = 0 | PRKCA 0 | PTK2 = 0 | PTK2B 0 | RAF1 = 0 | [1] 0 | RET 0 | [2] 0 | RIOK1 = 0 | RIPK1 = 0 | RIPK2 = 0 | ROR2 = 0 | RPS6KA1 = 0 | SPHK1 = 0 | SRC 0 | STK24 = 0

COc1cc2ncnc(-n3nc(-c4ccccn4)nc3N)c2cc1OC (10 µM)
inactive: PDPK1 = 0 | PIK4CA 0 | PIK4CB 0 | PLK1 = 0 | PRKAA1 = 0 | PRKCA 0 | PTK2 = 0 | PTK2B 0 | RAF1 = 0 | [1] 0 | RET 0 | [2] 0 | RIOK1 = 0 | RIPK1 = 0 | RIPK2 = 0 | ROR2 = 0 | RPS6KA1 = 0 | SPHK1 = 0 | SRC 0 | STK24 = 0

Cc1ccc(-c2csc3ncnc(SCCC(=O)O)c23)cc1 (10 µM)
inactive: PDPK1 = 0 | PIK4CA 0 | PIK4CB 0 | PLK1 = 0 | PRKAA1 = 0 | PRKCA 0 | PTK2 = 0 | PTK2B 0 | RAF1 = 0 | [1] 0 | RET 0 | [2] 0 | RIOK1 = 0 | RIPK1 = 0 | RIPK2 = 0 | ROR2 = 0 | RPS6KA1 = 0 | SPHK1 = 0 | SRC 0 | STK24 = 0

O=C(Nc1cccc(C(F)(F)F)c1)c1cccc2cc(Oc3cc(CO)ncn3)ccc12 (10 µM)
inactive: PDPK1 = 0 | PIK4CA 0 | PIK4CB 0 | PLK1 = 0 | PRKAA1 = 0 | PRKCA 0 | PTK2 = 0 | PTK2B 0 | RAF1 = 0 | [1] 0 | RET 0 | [2] 0 | RIOK1 = 0 | RIPK1 = 0 | RIPK2 = 0 | ROR2 = 0 | RPS6KA1 = 0 | SPHK1 = 0 | SRC 0 | STK24 = 0
